Source: article PMC9797307, “Measurement of Pharmacokinetics and Tissue Distribution of Four Compounds from Nauclea officinalis in Rat Plasma and Tissues through HPLC-MS/MS” (Journal of Analytical Methods in Chemistry, 2022)

Experiment: Extraction recovery of analytes from rat plasma and tissue samples
Conditions: n = 6

Q: With `O=C(/C=C/c1ccc(O)c(O)c1)O[C@@H]1C[C@](O)(C(=O)O)C[C@@H](O)[C@H]1O` [Chlorogenic acid] as the compound, how does the Extraction recovery (brain, 2 ng/mL) read?
A: The Extraction recovery was 82.33 ± 4.65%.

Q: And the Extraction recovery (brain, 4 ng/mL)?
A: The Extraction recovery was 75.80 ± 3.59%.

Q: And the Extraction recovery (brain, 100 ng/mL)?
A: The Extraction recovery was 71.37 ± 1.17%.

Q: What about the Extraction recovery (brain, 2400 ng/mL) of the same compound?
A: The Extraction recovery was 86.06 ± 1.68%.

Q: And the Extraction recovery (heart, 2 ng/mL)?
A: The Extraction recovery was 80.53 ± 9.62%.

Q: What about the Extraction recovery (heart, 4 ng/mL) of the same compound?
A: The Extraction recovery was 76.82 ± 4.77%.

Q: And the Extraction recovery (heart, 100 ng/mL)?
A: The Extraction recovery was 62.02 ± 2.24%.

Q: And the Extraction recovery (heart, 2400 ng/mL)?
A: The Extraction recovery was 63.32 ± 0.58%.

Q: What about the Extraction recovery (kidney, 2 ng/mL) of the same compound?
A: Its Extraction recovery is 78.34 ± 4.02%.

Q: And the Extraction recovery (kidney, 4 ng/mL)?
A: The Extraction recovery was 86.92 ± 3.00%.

Q: What about the Extraction recovery (kidney, 100 ng/mL) of the same compound?
A: Its Extraction recovery is 70.73 ± 4.90%.

Q: What about the Extraction recovery (kidney, 2400 ng/mL) of the same compound?
A: Its Extraction recovery is 72.70 ± 1.50%.

Q: What about the Extraction recovery (liver, 2 ng/mL) of the same compound?
A: Its Extraction recovery is 97.06 ± 3.75%.

Q: What about the Extraction recovery (liver, 4 ng/mL) of the same compound?
A: The Extraction recovery was 79.07 ± 2.90%.

Q: What about the Extraction recovery (liver, 100 ng/mL) of the same compound?
A: The Extraction recovery was 66.44 ± 0.24%.

Q: What about the Extraction recovery (liver, 2400 ng/mL) of the same compound?
A: The Extraction recovery was 69.83 ± 1.55%.

Q: What about the Extraction recovery (lung, 2 ng/mL) of the same compound?
A: Its Extraction recovery is 81.80 ± 2.52%.

Q: And the Extraction recovery (lung, 4 ng/mL)?
A: The Extraction recovery was 88.65 ± 1.55%.

Q: And the Extraction recovery (lung, 100 ng/mL)?
A: Its Extraction recovery is 80.24 ± 2.11%.

Q: And the Extraction recovery (lung, 2400 ng/mL)?
A: Its Extraction recovery is 76.89 ± 1.69%.

Q: What about the Extraction recovery (plasma, 2 ng/mL) of the same compound?
A: Its Extraction recovery is 80.45 ± 4.36%.

Q: And the Extraction recovery (plasma, 4 ng/mL)?
A: The Extraction recovery was 80.04 ± 3.08%.

Q: What about the Extraction recovery (plasma, 100 ng/mL) of the same compound?
A: The Extraction recovery was 69.49 ± 4.05%.

Q: What about the Extraction recovery (plasma, 2400 ng/mL) of the same compound?
A: The Extraction recovery was 72.26 ± 1.16%.

Q: And the Extraction recovery (small intestine, 2 ng/mL)?
A: The Extraction recovery was 56.20 ± 3.36%.

Q: What about the Extraction recovery (small intestine, 4 ng/mL) of the same compound?
A: The Extraction recovery was 51.85 ± 1.94%.

Q: What about the Extraction recovery (small intestine, 100 ng/mL) of the same compound?
A: Its Extraction recovery is 61.26 ± 1.87%.

Q: What about the Extraction recovery (small intestine, 2400 ng/mL) of the same compound?
A: Its Extraction recovery is 62.66 ± 1.06%.

Q: What about the Extraction recovery (spleen, 2 ng/mL) of the same compound?
A: The Extraction recovery was 80.09 ± 1.22%.

Q: What about the Extraction recovery (spleen, 4 ng/mL) of the same compound?
A: The Extraction recovery was 86.82 ± 2.88%.

Q: And the Extraction recovery (spleen, 100 ng/mL)?
A: The Extraction recovery was 67.29 ± 1.81%.

Q: And the Extraction recovery (spleen, 2400 ng/mL)?
A: Its Extraction recovery is 73.12 ± 1.61%.

Q: What about the Extraction recovery (stomach, 2 ng/mL) of the same compound?
A: The Extraction recovery was 85.33 ± 5.20%.

Q: And the Extraction recovery (stomach, 4 ng/mL)?
A: The Extraction recovery was 91.66 ± 6.11%.

Q: What about the Extraction recovery (stomach, 100 ng/mL) of the same compound?
A: Its Extraction recovery is 66.48 ± 3.94%.

Q: And the Extraction recovery (stomach, 2400 ng/mL)?
A: The Extraction recovery was 69.41 ± 1.56%.

Q: For `C/C=C1/COC(=O)[C@H]2C(=O)N3CCc4c([nH]c5ccccc45)[C@@H]3C[C@@H]12` [Naucleactonin C], which Extraction recovery (brain, 5 ng/mL) is on record?
A: The Extraction recovery was 88.08 ± 3.12%.

Q: And the Extraction recovery (brain, 8 ng/mL)?
A: The Extraction recovery was 88.38 ± 7.32%.

Q: And the Extraction recovery (brain, 140 ng/mL)?
A: The Extraction recovery was 97.63 ± 4.35%.

Q: What about the Extraction recovery (brain, 2400 ng/mL) of the same compound?
A: Its Extraction recovery is 99.47 ± 1.42%.

Q: What about the Extraction recovery (heart, 5 ng/mL) of the same compound?
A: The Extraction recovery was 97.71 ± 1.95%.

Q: And the Extraction recovery (heart, 8 ng/mL)?
A: The Extraction recovery was 96.33 ± 7.19%.

Q: What about the Extraction recovery (heart, 140 ng/mL) of the same compound?
A: Its Extraction recovery is 85.37 ± 2.90%.

Q: What about the Extraction recovery (heart, 2400 ng/mL) of the same compound?
A: The Extraction recovery was 86.76 ± 1.61%.

Q: What about the Extraction recovery (kidney, 5 ng/mL) of the same compound?
A: The Extraction recovery was 94.08 ± 8.11%.

Q: And the Extraction recovery (kidney, 8 ng/mL)?
A: Its Extraction recovery is 105.08 ± 5.22%.

Q: And the Extraction recovery (kidney, 140 ng/mL)?
A: The Extraction recovery was 86.02 ± 4.39%.

Q: What about the Extraction recovery (kidney, 2400 ng/mL) of the same compound?
A: The Extraction recovery was 86.64 ± 2.26%.

Q: What about the Extraction recovery (liver, 5 ng/mL) of the same compound?
A: Its Extraction recovery is 92.06 ± 9.87%.

Q: And the Extraction recovery (liver, 8 ng/mL)?
A: Its Extraction recovery is 85.03 ± 4.91%.

Q: What about the Extraction recovery (liver, 140 ng/mL) of the same compound?
A: Its Extraction recovery is 84.88 ± 4.52%.

Q: And the Extraction recovery (liver, 2400 ng/mL)?
A: Its Extraction recovery is 80.54 ± 0.83%.

Q: And the Extraction recovery (lung, 5 ng/mL)?
A: The Extraction recovery was 105.63 ± 3.87%.

Q: And the Extraction recovery (lung, 8 ng/mL)?
A: The Extraction recovery was 99.21 ± 12.43%.

Q: And the Extraction recovery (lung, 140 ng/mL)?
A: The Extraction recovery was 95.48 ± 2.88%.

Q: And the Extraction recovery (lung, 2400 ng/mL)?
A: The Extraction recovery was 84.40 ± 1.82%.

Q: And the Extraction recovery (plasma, 5 ng/mL)?
A: Its Extraction recovery is 100.30 ± 11.77%.

Q: What about the Extraction recovery (plasma, 8 ng/mL) of the same compound?
A: Its Extraction recovery is 106.68 ± 6.31%.

Q: And the Extraction recovery (plasma, 140 ng/mL)?
A: The Extraction recovery was 96.41 ± 1.66%.

Q: What about the Extraction recovery (plasma, 2400 ng/mL) of the same compound?
A: The Extraction recovery was 88.27 ± 1.05%.

Q: What about the Extraction recovery (small intestine, 5 ng/mL) of the same compound?
A: The Extraction recovery was 98.55 ± 9.61%.

Q: And the Extraction recovery (small intestine, 8 ng/mL)?
A: Its Extraction recovery is 82.00 ± 5.03%.

Q: What about the Extraction recovery (small intestine, 140 ng/mL) of the same compound?
A: The Extraction recovery was 91.73 ± 1.67%.

Q: What about the Extraction recovery (small intestine, 2400 ng/mL) of the same compound?
A: Its Extraction recovery is 86.61 ± 3.15%.

Q: And the Extraction recovery (spleen, 5 ng/mL)?
A: The Extraction recovery was 100.21 ± 9.21%.

Q: And the Extraction recovery (spleen, 8 ng/mL)?
A: The Extraction recovery was 99.90 ± 5.49%.

Q: And the Extraction recovery (spleen, 140 ng/mL)?
A: Its Extraction recovery is 84.00 ± 1.54%.

Q: What about the Extraction recovery (spleen, 2400 ng/mL) of the same compound?
A: Its Extraction recovery is 84.60 ± 1.40%.

Q: And the Extraction recovery (stomach, 5 ng/mL)?
A: Its Extraction recovery is 97.93 ± 4.19%.

Q: What about the Extraction recovery (stomach, 8 ng/mL) of the same compound?
A: The Extraction recovery was 99.25 ± 3.17%.

Q: And the Extraction recovery (stomach, 140 ng/mL)?
A: Its Extraction recovery is 82.46 ± 1.88%.

Q: And the Extraction recovery (stomach, 2400 ng/mL)?
A: Its Extraction recovery is 75.99 ± 2.77%.
